# Test results published in the supplement of paper PMC10735217.
# Structures can show the parent of a compound that is named as a salt. The list shows a part of the results. Repeats in this data set agree poorly, so a single value says little.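 The human kidney-derived cells carry a stably integrated construct of eight TEAD-binding elements driving luciferase, read by luminescence in a drug-repurposing library screen. A compound counts as a hit when its signal is more than five robust Z scores above the plate mean.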
# Tested on: HEK293A TEAD-LUC reporter
# Assay: TEAD-luciferase reporter activity (YAP activation), robust Z score vs plate; higher = stronger YAP/TEAD activation
# Details: 24 h
SMILES,TEAD-luciferase reporter activity (compound concentration: 200 nM),TEAD-luciferase reporter activity (compound concentration: 2 uM),TEAD-luciferase reporter activity (compound concentration: 10 uM)
CC[C@H](C(=O)Oc1c(OC)cc(C)cc1OC)N(CCOC)CCOC,inactive: -0.406,inactive: -0.448,inactive: 0.91
C[N@+]12CC[C@H](CC1)C(CN1c3ccccc3Sc3ccccc31)C2 (stereo partly specified),inactive: -1.25,inactive: -0.244,inactive: 2.05
CC(=O)NCCCOc1ccc(C(=O)N2CCC(N3C(=O)CCc4ccccc43)CC2)cc1,inactive: 0.358,inactive: -0.862,inactive: -0.523
NCc1cc(O)no1 [Muscimol hydrobromide],inactive: -0.507,,inactive: -0.179
NCc1cc(O)no1 [Muscimol],,inactive: 1.17,
[N-]=[N+]=CC(=O)OC[C@H](N)C(=O)O,inactive: -1.42,inactive: 1.86,inactive: 0.155
NCCN1C(=O)CN2CCOC2(c2ccccc2F)c2cc(Cl)ccc21 (stereo unspecified),inactive: -0.302,inactive: -0.759,inactive: -0.242
CCC(Br)(CC)C(=O)NC(N)=O,inactive: 1.55,inactive: 0.0493,inactive: -0.313
CCCc1cc(O)c2c(c1)OC(C)(C)[C@@H]1CCC(C)=C[C@@H]21,inactive: -0.785,inactive: -1.32,inactive: 0.438
CC[C@]12CC[C@H]3[C@@H](CCC4=C[C@@H](O)CC[C@@]43C)[C@@H]1CC[C@@H]2O,inactive: -2.81,inactive: 0.354,inactive: 0.999
O=C(N/N=C/c1ccc([N+](=O)[O-])o1)c1cc([N+](=O)[O-])cc([N+](=O)[O-])c1O,inactive: 0.771,inactive: 2.13,inactive: 0.0638
CCC1(O)CC(=O)OCc2c1cc1n(c2=O)Cc2cc3ccccc3nc2-1 (stereo unspecified),inactive: -2.5,inactive: -1.8,inactive: -0.401
O=C(NC1CN2CCC1CC2)c1cc2ccoc2cn1 (stereo unspecified),inactive: -0.939,inactive: -0.925,inactive: 0.774
O=[As][O-] [Sodium metaarsenite],inactive: 0.229,inactive: -0.627,inactive: -0.162
CCCN(CCC)C1CCc2ccc(O)cc2C1 (stereo unspecified),inactive: -1.43,inactive: -1.79,inactive: -2.02
O=C(O)CCNC(=O)[C@H](Cc1ccc(-c2ccccc2)cc1)NCP(=O)(Oc1ccccc1)Oc1ccccc1,inactive: -0.694,inactive: 0.405,inactive: 3.98
O=[N+]([O-])[O-]->[Pt+2]1(<-[NH2][C@@H]2CCCC[C@H]2[NH2]->1)<-[O-][N+](=O)[O-] [Oxaliplatin Related Compound B],inactive: 1.86,inactive: -0.965,inactive: 0.65
c1cnc2c(c1)O[C@H]1CCN3CC[C@@]1(C2)C3 [Dianicline],inactive: -0.955,inactive: -2.32,inactive: -0.966
COc1c2c(cc3c1C(O)N(C)CC3)OCO2 (stereo unspecified),inactive: -1.38,inactive: -1.48,inactive: 3.79
C[C@@H](CN1CCC2(C)c3cccc(O)c3CC1C2(C)C)OCc1ccccc1 (stereo partly specified),inactive: -0.724,inactive: -0.092,inactive: -0.726
CCO[C@H]1O[C@@H]2O[C@@]3(C)CC[C@H]4[C@H](C)CC[C@@H]([C@H]1C)[C@@]24OO3,,inactive: 0.731,
CCO[C@H]1O[C@@H]2O[C@@]3(C)CC[C@H]4[C@H](C)CC[C@@H]([C@H]1C)[C@@]24OO3 [arteether],inactive: -1.69,inactive: -1.79,inactive: 0.698
CCN(C(=O)CNC(=O)C(CCS(C)=O)NC(=O)C(N)Cc1ccc(O)cc1)C(Cc1ccccc1)C(=O)NNC(C)=O (stereo unspecified),inactive: -1.25,inactive: 0.598,inactive: -1.51
CN[C@@H]1Cc2cccc3nc(O)n(c23)C1,inactive: -1.44,inactive: 1.76,inactive: -1.8
COc1ccc2c(C(=O)c3ccc(Cl)cc3)c(C)n(CC(=O)O)c2c1,inactive: -0.67,,inactive: 3.66
Oc1cc(Cl)c(Cl)cc1Cl,inactive: -1.69,inactive: -0.508,inactive: -1.43
Cc1ccc2c(c1)C(c1ccccc1)=NCC(=O)N2CCCCN1CCN(c2ccccc2)CC1,inactive: -0.964,inactive: -0.237,inactive: -1.82
O=C(c1cnc(Nc2cccc(Cl)c2)nc1C(F)(F)F)N1CCCCC1,inactive: 0.427,inactive: -0.649,inactive: -0.951
C=C(c1ccc(C2CCCCC2)cc1)C1COC2(OO1)C1CC3CC(C1)CC2C3 (stereo unspecified),inactive: -1.05,inactive: 2.75,inactive: 3.47

# Copied from the entries so far for reference:
SMILES,TEAD-luciferase reporter activity (compound concentration: 200 nM),TEAD-luciferase reporter activity (compound concentration: 2 uM),TEAD-luciferase reporter activity (compound concentration: 10 uM)
NCc1cc(O)no1 [Muscimol],,inactive: 1.17,
[N-]=[N+]=CC(=O)OC[C@H](N)C(=O)O,inactive: -1.42,inactive: 1.86,inactive: 0.155
